{
  "sequences": {"note": "By UniProt entry, the sequences of proteins in these tests, tags left out.", "UniProt Q06609, whole entry S97D": "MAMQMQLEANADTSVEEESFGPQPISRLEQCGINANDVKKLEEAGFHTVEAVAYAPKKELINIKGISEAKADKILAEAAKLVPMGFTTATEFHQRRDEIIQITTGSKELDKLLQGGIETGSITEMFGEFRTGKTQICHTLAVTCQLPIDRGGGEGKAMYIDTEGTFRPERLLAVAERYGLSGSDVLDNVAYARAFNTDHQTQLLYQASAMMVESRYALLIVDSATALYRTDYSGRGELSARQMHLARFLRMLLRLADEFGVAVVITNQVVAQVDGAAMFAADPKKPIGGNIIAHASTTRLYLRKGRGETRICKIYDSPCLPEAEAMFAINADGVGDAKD", "UniProt Q06609, whole entry S97A": "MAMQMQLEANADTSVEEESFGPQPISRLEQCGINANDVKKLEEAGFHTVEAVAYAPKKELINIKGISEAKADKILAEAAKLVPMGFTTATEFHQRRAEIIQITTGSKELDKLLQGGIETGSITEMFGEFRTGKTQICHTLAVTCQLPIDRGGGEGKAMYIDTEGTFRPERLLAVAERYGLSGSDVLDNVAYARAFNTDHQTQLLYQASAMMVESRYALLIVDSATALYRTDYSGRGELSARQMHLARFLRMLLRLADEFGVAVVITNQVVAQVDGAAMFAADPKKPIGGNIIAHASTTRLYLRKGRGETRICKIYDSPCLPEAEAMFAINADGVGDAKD"},
  "source": "paper doi:10.1101/2023.08.11.552966",
  "key": {"[1]": {"biological_target": "RAD51 S97D (phosphomimetic) (Homo sapiens) (UniProt Q06609)", "assay": "BLI", "conditions": "2 mM ATP"}, "[2]": {"biological_target": "RAD51 S97A (non phosphorylable) (Homo sapiens) (UniProt Q06609)", "assay": "BLI", "conditions": "2 mM ATP"}},
  "note": "Construct, isoform or probe ends are uncertain for at least one entry.",
  "data": [
    {"sequence": "GCCAUCCGCAAAAAUGACCUCUUAUCAAAAGGA [33m RNA]", "values": [
      {"measurement": "Kd", "setting": "[1]", "result": 1730, "unit": "nM"},
      {"measurement": "Kd", "setting": "[2]", "result": 320, "unit": "nM"}
    ]},
    {"sequence": "TCCTTTTGATAAGAGGTCATTTTTGCGGATGGC [33m DNA]", "values": [
      {"measurement": "Kd", "setting": "[1]", "result": 3630, "unit": "nM"},
      {"measurement": "Kd", "setting": "[2]", "result": 340, "unit": "nM"}
    ]}
  ]
}
